Source: paper doi:10.1101/542068

Tested on: PSHCP1-62
Test: competition with a labelled probe
Details: ITC, equimolar dsGCDNA does not compete with tRNA, 25 mM NaCl, 75 mM KCl

Does CCGCGCGCGCGG (double strand) [dsGCDNA] bind?
Result: no binding

For at least one entry, the source does not settle the construct or the ends of the probe. A negative result means that nothing was seen under these conditions.
